Drawing on PMC4537036, this text covers binding for one molecule.

Amino acid sequences for entries named in this document (tags omitted). A change or cut given only in a name is not applied to a line headed by its entry.
UniProt O60711: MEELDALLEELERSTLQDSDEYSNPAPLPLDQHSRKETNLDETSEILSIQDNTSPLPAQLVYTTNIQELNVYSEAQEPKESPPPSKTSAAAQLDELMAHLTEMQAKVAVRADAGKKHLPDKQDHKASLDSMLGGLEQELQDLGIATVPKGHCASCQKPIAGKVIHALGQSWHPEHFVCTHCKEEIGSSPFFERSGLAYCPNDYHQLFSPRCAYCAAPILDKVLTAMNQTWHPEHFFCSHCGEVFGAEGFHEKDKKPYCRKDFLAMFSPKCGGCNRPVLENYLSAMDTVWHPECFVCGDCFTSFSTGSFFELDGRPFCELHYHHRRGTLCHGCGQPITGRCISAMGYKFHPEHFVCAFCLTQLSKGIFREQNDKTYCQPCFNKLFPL

Results are given in words; binding and its absence hold for the method and conditions named. In cells and extracts the contact can be indirect. For some assays here: A result given as binding can be weak or reduced; the word gives no strength. Tags and fused reporters may be left off the sequences shown.

Experiment [1] addresses GST-LPXN-LIM (the four LIM domains of leupaxin, aa 173-417) (human). Description: pull-down; purified GST-LPXN fusion proteins on glutathione-Sepharose, incubated with protein lysate of PC-3 cells transfected with pEGFP-Caldesmon; blot with CaD-specific antibody; only the target purified.
Experiment [2] has as its target GST-LPXN-LD (the four LD motifs of leupaxin, aa 32-176) (human) (UniProt O60711). Described as above.

B1: EGFP-Caldesmon fusion protein (pEGFP-CALD1) (protein, UniProt Q05682-4 1-538)
chain: MDDFERRRELRRQKREEMRLEAERIAYQRNDDDEEEAARERRRRARQERLRQKQEEESLGQVTDQVEVNAQNSVPDEEAKTTTTNTQVEGDDEAAFLERLARREERRQKRLQEALERQKEFDPTITDASLSLPSRRMQNDTAENETTEKEEKSESRQERYEIEETETVTKSYQKNDWRDAEENKKEDKEKEEEEEEKPKRGSIGENQIKDEKIKKDKEPKEEVKSFMDRKKGFTEVKSQNGEFMTHKLKHTENTFSRPGGRASVDTKEAEGAPQVEAGKRLEELRRRRGETESEEFEKLKQKQQEAALELEELKKKREERRKVLEEEEQRRKQEEADRKLREEEEKRRLKEEIERRRAEAAEKRQKMPEDGLSDDKKPFKCFTPKGSSLKIEERAEFLNKSVQKSSGVKSTHQAAIVSKIDSRLEQYTSAIEGTKSAKPTKPAASDLPVPAEGVRNIKSMWEKGNVFSSPTAAGTPNKETAGLKVGVSSRINEWLTKTPDGNKSPAPKPSDLRPGDVSSKRNLWEKQSVDKVTSPTKV
In the case of B1, the binding entry is “no binding” in experiment [1] and “binds” in experiment [2].
